Measured data: PubChem BioAssay AID1259276 (Sanger Institute, 2017)
Shown is a random part of 794 deposited reagents. Over the whole deposit, 24 (3%) were called active. 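Calls come only from the siRNA-alone arm; drug synergy scores do not affect them.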 No viability above 1 is reported: the scale is capped. Not stated in the record: the amount of reagent, the time to read-out.

- Assay: 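Find kinases whose silencing cuts viability alone or combined with BYL719, cetuximab or trametinib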 (primary screen)
- Cell system: human C2BBe1 colorectal cancer cells
- Reagent: siRNA pool against human genes
- Treatment: DMSO vehicle, or one anchor drug: BYL719 at 1 µM, cetuximab at 5 µg/ml, or trametinib at 10 nM; exposure length not stated
- Measured: 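Viability after knock-down relative to non-targeting siRNA controls, averaged across replicates, given as ratio and control-derived robust z-score, with per-drug synergy scores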
- Reading the numbers: viability robust z-score, siRNA alone and viability vs control, siRNA alone: higher = more viable cells after knock-down; synergy score with BYL719: higher = stronger combined killing with BYL719; synergy score with cetuximab: higher = stronger combined killing with cetuximab; synergy score with trametinib: higher = stronger combined killing with trametinib
- Active means: 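a siRNA pool tested without drug is essential if its viability robust z-score falls under -3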
- Meaning of the calls: active = essential (siRNA alone); inactive = no change (siRNA alone)

gene symbol | viability robust z-score, siRNA alone | viability vs control, siRNA alone | synergy score with BYL719 | synergy score with cetuximab | synergy score with trametinib | Call
CKB | 0.472 | 1 | -0.142 | -0.0115 | -0.0667 | inactive
BMPR2 | -1.69 | 0.864 | -0.236 | -0.0599 | -0.0786 | inactive
CDKL4 | -1.36 | 0.885 | -0.0117 | -0.112 | 0.0611 | inactive
NTN4 | 0.472 | 1 | -0.142 | -0.0115 | 0.0558 | inactive
PIK3CD | 0.472 | 1 | 0.111 | -0.0115 | -0.00421 | inactive
CHEK1 | 0.472 | 1 | 0.073 | -0.0115 | -0.0667 | inactive
IGF1R | 0.472 | 1 | -0.142 | 0.0854 | -0.0667 | inactive
MINK1 | 0.472 | 1 | 0.125 | -0.0115 | -0.0667 | inactive
KSR1 | -2.36 | 0.822 | 0.127 | 0.0184 | 0.0353 | inactive
ITK | 0.472 | 1 | -0.105 | 0.741 | -0.0667 | inactive
ITPKA | 0.472 | 1 | -0.00421 | 0.0591 | -0.0667 | inactive
EFNA5 | 0.472 | 1 | -0.142 | -0.0115 | -0.0667 | inactive
KSR2 | 0.472 | 1 | -0.0511 | 0.0978 | -0.011 | inactive
CAMKV | 0.472 | 1 | 0.16 | -0.0115 | -0.0667 | inactive
PKIA | 0.138 | 0.979 | 0.108 | 0.0529 | -0.0863 | inactive
MAP3K15 | 0.472 | 1 | -0.0968 | -0.0115 | -0.0667 | inactive
MYO3A | 0.472 | 1 | -0.142 | 0.112 | -0.0667 | inactive
CREBBP | 0.472 | 1 | 0.129 | -0.0115 | -0.0667 | inactive
NME1 | 0.472 | 1 | 0.0691 | -0.0115 | -0.0667 | inactive
BCKDK | 0.472 | 1 | 0.122 | -0.0115 | -0.0667 | inactive
RTN4 | -0.157 | 0.96 | -0.106 | -0.0507 | -0.104 | inactive
MAPKAPK2 | -0.634 | 0.93 | 0.313 | -0.0804 | -0.132 | inactive
AK3 | 0.472 | 1 | 0.00863 | -0.0115 | -0.0667 | inactive
SIK3 | 0.472 | 1 | -0.011 | -0.0115 | 0.0653 | inactive
CALM3 | 0.472 | 1 | 0.101 | 0.00646 | -0.0667 | inactive
ERN2 | -0.014 | 0.969 | -0.082 | 0.0691 | 0.175 | inactive
EPHA8 | 0.472 | 1 | -0.142 | -0.0115 | -0.0454 | inactive
MUSK | -1.6 | 0.869 | 0.05 | -0.141 | -0.106 | inactive
RET | 0.472 | 1 | -0.129 | 0.179 | -0.0667 | inactive
FGFRL1 | 0.472 | 1 | -0.0411 | 0.14 | 0.00405 | inactive

A stretch of the results above, as a working copy:
gene symbol | viability robust z-score, siRNA alone | viability vs control, siRNA alone | synergy score with BYL719 | synergy score with cetuximab | synergy score with trametinib | Call
PKIA | 0.138 | 0.979 | 0.108 | 0.0529 | -0.0863 | inactive
MAP3K15 | 0.472 | 1 | -0.0968 | -0.0115 | -0.0667 | inactive

Additional records follow.
gene symbol | viability robust z-score, siRNA alone | viability vs control, siRNA alone | synergy score with BYL719 | synergy score with cetuximab | synergy score with trametinib | Call
NRAS | 0.472 | 1 | -0.142 | -0.0115 | -0.0667 | inactive
MYO3B | -0.777 | 0.921 | 0.0423 | 0.0681 | -0.14 | inactive
EEF2K | -0.331 | 0.949 | 0.232 | 0.0989 | 0.00447 | inactive
RIPK3 | 0.472 | 1 | -0.0442 | -0.0115 | 0.0493 | inactive
FGFR1 | 0.472 | 1 | -0.142 | -0.0115 | -0.0667 | inactive
GRK6 | 0.472 | 1 | 0.0167 | -0.00611 | -0.0667 | inactive
KMT2B | 0.472 | 1 | -0.0268 | 0.000275 | -0.0667 | inactive
HUNK | 0.472 | 1 | 0.337 | -0.00834 | 0.0965 | inactive
RPS6KA6 | 0.472 | 1 | -0.129 | 0.0215 | -0.0667 | inactive
CDK13 | 0.472 | 1 | 0.0363 | -0.0115 | -0.0667 | inactive
NEK5 | 0.472 | 1 | -0.142 | -0.0115 | -0.0667 | inactive
RPS6KC1 | 0.472 | 1 | -0.09 | -0.0115 | -0.0667 | inactive
BUB1B | -0.522 | 0.937 | -0.151 | -0.0734 | -0.125 | inactive
TPK1 | -1.19 | 0.895 | -0.0473 | 0.0762 | -0.165 | inactive
EFNA4 | -1.75 | 0.86 | -0.235 | -0.15 | -0.152 | inactive
NME6 | 0.472 | 1 | 0.0273 | 0.178 | -0.0534 | inactive
BRSK1 | 0.472 | 1 | -0.0649 | -0.0115 | -0.0667 | inactive
TEC | 0.472 | 1 | 0.0698 | 0.152 | -0.0264 | inactive
MAP3K13 | -3.1 | 0.775 | -0.17 | -0.149 | -0.158 | active
PTGS1 | -2.12 | 0.837 | -0.0397 | -0.0997 | 0.0328 | inactive
